{
  "source": "patent US20120064159A1",
  "about": "“Multilayer Oral Tablets Containing a Non-Steroidal Anti-Inflammatory Drug and/or Acetaminophen” (Aptapharma, Inc., priority 2009, published 2012)",
  "origin": "cited, not measured here",
  "settings": "reportedly required",
  "data": [
    {"smiles": "COc1ccc2cc([C@H](C)C(=O)O)ccc2c1", "note": "[naproxen, (S)-6-methoxy-methyl-2-naphthaleneacetic acid]", "values": [
      {"measurement": "Plasma naproxen concentrations required for anti-inflammatory or analgesic effects", "result": "30 to 90", "unit": "µg/mL"}
    ]}
  ]
}
